Drawing on paper PMC11274071, this text covers binding for 1 substance.

Amino acid sequences for entries named in this document (tags omitted). Residues count along the entry.
UniProt P31749: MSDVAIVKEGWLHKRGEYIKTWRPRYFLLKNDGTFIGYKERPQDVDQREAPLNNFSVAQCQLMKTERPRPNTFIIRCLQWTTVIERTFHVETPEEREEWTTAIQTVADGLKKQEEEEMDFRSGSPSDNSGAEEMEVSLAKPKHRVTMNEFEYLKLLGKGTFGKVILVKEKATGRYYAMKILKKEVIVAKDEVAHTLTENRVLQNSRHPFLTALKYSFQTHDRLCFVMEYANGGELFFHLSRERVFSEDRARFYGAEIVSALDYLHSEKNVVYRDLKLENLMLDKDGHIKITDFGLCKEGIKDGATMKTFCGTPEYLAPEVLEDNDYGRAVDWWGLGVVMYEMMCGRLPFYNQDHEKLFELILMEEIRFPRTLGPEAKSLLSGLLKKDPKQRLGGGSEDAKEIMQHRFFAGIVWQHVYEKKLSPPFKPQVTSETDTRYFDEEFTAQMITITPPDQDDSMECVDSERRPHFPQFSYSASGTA
UniProt P25445, residues 26-335: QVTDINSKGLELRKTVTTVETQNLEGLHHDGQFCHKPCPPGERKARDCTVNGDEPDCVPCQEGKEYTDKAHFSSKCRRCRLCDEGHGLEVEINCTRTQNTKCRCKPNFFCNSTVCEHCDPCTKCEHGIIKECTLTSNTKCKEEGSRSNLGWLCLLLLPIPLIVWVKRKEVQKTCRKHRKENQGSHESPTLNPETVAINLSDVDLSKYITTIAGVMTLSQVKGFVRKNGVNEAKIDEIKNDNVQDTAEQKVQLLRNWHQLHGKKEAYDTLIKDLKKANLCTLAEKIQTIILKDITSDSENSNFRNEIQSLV
UniProt P04233: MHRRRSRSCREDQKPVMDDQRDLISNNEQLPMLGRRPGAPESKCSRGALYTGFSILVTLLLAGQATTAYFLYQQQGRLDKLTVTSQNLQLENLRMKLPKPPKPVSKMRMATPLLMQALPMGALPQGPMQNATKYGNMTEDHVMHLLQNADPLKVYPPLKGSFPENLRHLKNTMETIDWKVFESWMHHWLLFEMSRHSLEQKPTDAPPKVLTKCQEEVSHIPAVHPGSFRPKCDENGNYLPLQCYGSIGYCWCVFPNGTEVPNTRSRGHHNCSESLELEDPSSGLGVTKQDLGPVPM

Results are given in words; binding and its absence hold for the method and conditions named. Binding seen in cells or lysates may run through a third protein. Some binding calls cover weakened binding; strength is not graded here.

In experiment [1] the target is AKT phosphorylated at S473 (human (endogenous in HEK-293)) (UniProt P31749). Description: co-IP; HEK-293 lysates precipitated with anti-phospho-AKT1 (Ser473) antibody, blotted with the IN1 antibody against the cytosolic domain of CD74.
Experiment [2] addresses FAS (human (endogenous in MDA-MB-231)) (UniProt P25445). Description: co-IP; MDA-MB-231 cells, IP/IB with anti-CD74 (LN-2) and anti-FAS (B-10) antibodies; E1A lysis buffer (250 mM NaCl, 50 mM HEPES pH 7.5, 0.1% NP-40, 5 mM EDTA); cells pre-treated with peptides for 24 h.

CD74 (from UniProt P04233 1-296): the binding result in experiment [1] and in experiment [2] was “binds” in each case.
